These are yes or no findings as the source states them, for the method shown. Binding seen in cells or lysates may run through a third protein. These calls come from enrichment with a bait or labelling near it, and not all partners need be listed. Where a sequence is shown, tags or fusion partners need not be part of it.

In publication doi:10.1101/2021.10.14.464368 one finds binding data, which are given here for 2 molecules.

In the test the target is T1, RTN4IP1-V5-TurboID (human) (UniProt Q8WWV3).
T1 sequence: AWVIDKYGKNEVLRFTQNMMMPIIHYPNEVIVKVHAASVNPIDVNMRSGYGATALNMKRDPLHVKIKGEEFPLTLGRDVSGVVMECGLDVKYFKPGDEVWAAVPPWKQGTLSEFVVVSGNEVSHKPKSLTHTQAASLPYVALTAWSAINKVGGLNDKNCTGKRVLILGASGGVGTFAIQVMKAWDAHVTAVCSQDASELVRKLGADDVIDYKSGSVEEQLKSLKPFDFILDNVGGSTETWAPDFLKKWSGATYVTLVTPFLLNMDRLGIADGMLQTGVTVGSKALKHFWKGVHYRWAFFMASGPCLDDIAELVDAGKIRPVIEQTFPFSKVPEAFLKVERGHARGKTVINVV
Description: proximity labelling.

B1: COQ5 (protein, UniProt Q5HYK3 43-327)
chain: LSQEKRAAETHFGFETVSEEEKGGKVYQVFESVAKKYDVMNDMMSLGIHRVWKDLLLWKMHPLPGTQLLDVAGGTGDIAFRFLNYVQSQHQRKQKRQLRAQQNLSWEEIAKEYQNEEDSLGGSRVVVCDINKEMLKVGKQKALAQGYRAGLAWVLGDAEELPFDDDKFDIYTIAFGIRNVTHIDQALQEAHRVLKPGGRFLCLEFSQVNNPLISRLYDLYSFQVIPVLGEVIAGDWKSYQYLVESIRRFPSQEEFKDMIEDAGFHKVTYESLTSGIVAIHSGFKL
modifications: biotinylated lysine residues (K + 226 Da) after TurboID labelling
Take B1: the binding entry was “binds”.

B2: COQ3 (protein, UniProt Q9NZJ6 86-369)
chain: STSQTTVDSGEVKTFLALAHKWWDEQGVYAPLHSMNDLRVPFIRDNLLKTIPNHQPGKPLLGMKILDVGCGGGLLTEPLGRLGASVIGIDPVDENIKTAQCHKSFDPVLDKRIEYRVCSLEEIVEETAETFDAVVASEVVEHVIDLETFLQCCCQVLKPGGSLFITTINKTQLSYALGIVFSEQIASIVPKGTHTWEKFVSPETLESILESNGLSVQTVVGMLYNPFSGYWHWSENTSLNYAAYAVKSRVQEHPASAEFVLKGETEELQANACTNPAVHEKLKK
modifications: biotinylated lysine residues (K + 226 Da) after TurboID labelling
Take B2: the binding result is “binds”.
